According to PMC7819943, “Rice protein-binding microarrays: a tool to detect cis-acting elements near promoter regions in rice”:
This is one part of the list.

Target: T1, OsSMF1 (Oryza sativa, UniProt Q6ZLB0 1-436)
T1 sequence: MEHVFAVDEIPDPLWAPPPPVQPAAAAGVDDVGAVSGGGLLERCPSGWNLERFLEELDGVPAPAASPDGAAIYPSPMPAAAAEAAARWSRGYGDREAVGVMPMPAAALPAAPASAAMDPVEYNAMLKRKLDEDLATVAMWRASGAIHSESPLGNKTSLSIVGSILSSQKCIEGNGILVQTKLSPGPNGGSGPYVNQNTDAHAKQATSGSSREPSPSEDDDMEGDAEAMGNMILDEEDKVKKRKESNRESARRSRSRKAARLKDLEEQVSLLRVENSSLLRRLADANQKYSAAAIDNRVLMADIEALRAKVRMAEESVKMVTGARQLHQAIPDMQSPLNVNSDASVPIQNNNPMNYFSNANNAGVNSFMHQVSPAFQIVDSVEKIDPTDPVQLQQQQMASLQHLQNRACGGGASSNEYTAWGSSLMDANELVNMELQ
Assay: protein-binding microarray (RPBM); PBS, 2% BSA, 51.3 ng/ul salmon testes DNA, 50 uM zinc acetate, 200 nM TF, 25 C, 1 h; high values mean tight binding
Conditions: protein: recombinant; tags: N-terminal polyhistidine and DsRed monomer fusion (pET32a); chain copies: 2; label: CyDye5-dUTP incorporated in the synthesized complementary strand; 3' TTTTT single-stranded linker to array surface; dsDNA, one strand shown
Procedure, shortened: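 In PBS with 2% BSA, salmon testes DNA and 50 µM zinc acetate, 200 nM protein was incubated on a custom Agilent array at 25 °C for 1 h and then washed off. The array had been made double-stranded by primer extension with Cy5-dUTP and blocked with 2% BSA. The proteins were transcription factors fused N-terminally to polyhistidine and DsRed, expressed in E. coli BL21-CodonPlus and purified on Ni–NTA. The binding signal is per-feature fluorescence intensity (arbitrary units) from an Axon 4000B scanner.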

Sequence	binding signal
TATGTTGAGTTTGAATTTGTATATTTATGAAATGGCATATCGGAGTCACCTAGTGCAG	33000 fluorescence intensity (a.u.)
TTCCAAGTAGGATAATATGCTGACATGGATATCTTATGGACGGAGTCACCTAGTGCAG	4620 fluorescence intensity (a.u.)
TATTTTGGAGCGGACGAAGTAATAATATAGTACACGTCGGCGGAGTCACCTAGTGCAG	5310 fluorescence intensity (a.u.)
CGAATATTCTTTTGCCACGTTAGCTAGCCACGCGCGCGCCCGGAGTCACCTAGTGCAG	13500 fluorescence intensity (a.u.)
TTTGCTCGTTGGCAGCGGCCAGCAGGCACGTGTAACGGCGCGGAGTCACCTAGTGCAG	4190 fluorescence intensity (a.u.)
AGGTGGTTGATGACAGGGGCAAACACGGTGGGCCGGAGTGCGGAGTCACCTAGTGCAG	5850 fluorescence intensity (a.u.)
AGTATCATTCGTCGGAAGAAGTGTATCTCATGAGTAGTCTCGGAGTCACCTAGTGCAG	3210 fluorescence intensity (a.u.)
CGCAAAACCACAAATTTAAGGACGTGTATCACAATACTACCGGAGTCACCTAGTGCAG	5350 fluorescence intensity (a.u.)
GTATTGGTAGGTGATACGCCAGAGGGGAGCGGGCGTCCGCCGGAGTCACCTAGTGCAG	4570 fluorescence intensity (a.u.)
ACACCACATTGTTAAATCATAGCGCAATTAGACTTAAAAGCGGAGTCACCTAGTGCAG	3460 fluorescence intensity (a.u.)
TACACTCGGCTTACCTCTCTTCGGCTCAAGCCATAACTGACGGAGTCACCTAGTGCAG	26600 fluorescence intensity (a.u.)
AGCCAGTTACTCTTATTTAATCTTAGATGGATACGTGGCACGGAGTCACCTAGTGCAG	8260 fluorescence intensity (a.u.)
AGAAGGGAGGTGAGGCTGACATATGGGGCCCACGTGAGCCCGGAGTCACCTAGTGCAG	3930 fluorescence intensity (a.u.)
CATCGTGGACTCCGGCACGACGCTGACATTCCTCGACCCACGGAGTCACCTAGTGCAG	3910 fluorescence intensity (a.u.)
TATGCACGCGCCACCCTCCGCGTTTCGCGAGGCCTCTCCTCGGAGTCACCTAGTGCAG	3290 fluorescence intensity (a.u.)
TATTCTAAATTTAGTGGTGGAGTCATACGTGTAGCTCACACGGAGTCACCTAGTGCAG	4390 fluorescence intensity (a.u.)
TGCAAGCTAATCGAGTTGATGTAAGTTCATTGCCAGATCACGGAGTCACCTAGTGCAG	3260 fluorescence intensity (a.u.)
TTTCAGATTCTCCCCACTCTCAACAGTGTTCACGGAAAACCGGAGTCACCTAGTGCAG	24900 fluorescence intensity (a.u.)
AGCTGCCACGCTGGCACGAGGTCAGCGTCAGGTCCAGTGGCGGAGTCACCTAGTGCAG	21600 fluorescence intensity (a.u.)
ATTAATCTGGCATCTATACTTATAAAGTCCACGAAAGCGTCGGAGTCACCTAGTGCAG	3500 fluorescence intensity (a.u.)
TGTCAGTGAGCTGGTTTACATTTCACCCTTGATTATGTATCGGAGTCACCTAGTGCAG	3300 fluorescence intensity (a.u.)

3 entries from above, set out differently:
Sequence | binding signal
TTCCAAGTAGGATAATATGCTGACATGGATATCTTATGGACGGAGTCACCTAGTGCAG | 4620 fluorescence intensity (a.u.)
TATTTTGGAGCGGACGAAGTAATAATATAGTACACGTCGGCGGAGTCACCTAGTGCAG | 5310 fluorescence intensity (a.u.)
AGTATCATTCGTCGGAAGAAGTGTATCTCATGAGTAGTCTCGGAGTCACCTAGTGCAG | 3210 fluorescence intensity (a.u.)

The results go on.

Sequence	binding signal
GTGGACTAATCTCCATGTCCATCCCATAAATCCCTCACACCGGAGTCACCTAGTGCAG	22100 fluorescence intensity (a.u.)
GCTCCCAATAATCCTACCAACATCGGCACAAATGCCGCCACGGAGTCACCTAGTGCAG	24000 fluorescence intensity (a.u.)
GCCACCATCATGACAACACATAATTCTCACAGCCTAAATCCGGAGTCACCTAGTGCAG	4410 fluorescence intensity (a.u.)
AAGTCTTTACGTCATACCAAGGCTTCGATATTGTTATCTCCGGAGTCACCTAGTGCAG	5380 fluorescence intensity (a.u.)
GCCCGTACAGCCAACTCCACACCGCGTTCTGCAGCCACGTCGGAGTCACCTAGTGCAG	7120 fluorescence intensity (a.u.)
GCGGCAGGTGGAGCGAGACTACGACGTGGACGGCACCGACCGGAGTCACCTAGTGCAG	3480 fluorescence intensity (a.u.)
AGCAGAGCTTTGCCCCGGGGCGTCGGCACGCACTGCCACCCGGAGTCACCTAGTGCAG	3690 fluorescence intensity (a.u.)
CCTCTCTCGCCGCAGATCCCAACGCCGCACACACACGCACCGGAGTCACCTAGTGCAG	3150 fluorescence intensity (a.u.)
TGACTCTCACGCACTAATTACTACTCCACTTACATGGTTTCGGAGTCACCTAGTGCAG	3580 fluorescence intensity (a.u.)
TTATCAGAATTGCAAAATTGTGCACCGAGACAGAGAGGCTCGGAGTCACCTAGTGCAG	29000 fluorescence intensity (a.u.)
GACGTCCTCCGTCGGATGAGTCGGACTGTCGGACGGTGGACGGAGTCACCTAGTGCAG	3290 fluorescence intensity (a.u.)
GTATATATATGTCTTGTGTGTGCATGTGGATGAGTACGCACGGAGTCACCTAGTGCAG	3740 fluorescence intensity (a.u.)
TATGTTTACTTTTATTATAGTATTTTATAAGATAAATCTACGGAGTCACCTAGTGCAG	34400 fluorescence intensity (a.u.)
GGCAGGCAGGGGAACGCAAGGCATATCGTCGTCAATTCGTCGGAGTCACCTAGTGCAG	3240 fluorescence intensity (a.u.)
AGGTTGACACCGTGGCGACGAGGAGGTCCGGCTCATCCTTCGGAGTCACCTAGTGCAG	4390 fluorescence intensity (a.u.)
ATTAAATAAGCTGTCATTTAGAATGAAAGATGATGTGGCACGGAGTCACCTAGTGCAG	21700 fluorescence intensity (a.u.)
AGAAAAGGGGAAAGAAGGATAGGAGGCTGACGTGGATAACCGGAGTCACCTAGTGCAG	11500 fluorescence intensity (a.u.)
CGACCGCGCCACACGCATCCCCACGCCACCCTAACCACACCGGAGTCACCTAGTGCAG	3280 fluorescence intensity (a.u.)
CTGGGACCCACATCCGCGGATGTGGGCCCACGTAAGCAGTCGGAGTCACCTAGTGCAG	9600 fluorescence intensity (a.u.)
GCATTATATTAGTAGGTCGTGTATTATATTAGTAGGTACTCGGAGTCACCTAGTGCAG	4260 fluorescence intensity (a.u.)
TGGGGATGGCTGGTGAAGTGGCAGATTAGGGCTGAAAGCTCGGAGTCACCTAGTGCAG	3850 fluorescence intensity (a.u.)
